Measured values from US6528484B1, “Insecticidal protein toxins from Photorhabdus” (priority 1993, dated 2003).

Tested on: 38 kDa W-14 Photorhabdus metalloprotease
Experiment: Cleavage of TcbA by Photorhabdus metalloprotease, SDS-PAGE densitometry
Assay type: biochemical, Photorhabdus luminescens
[1] = 38 kDa protease treatment, 1.5 unit, 37° C., 90 min

TcbAii: W-14 toxin peptide processed from TcbA, SEQ ID NO:53
% of total protein [1]: 64% | % of total protein (Control (protease omitted)): 36%

TcbA: peptide TcbA, SEQ ID NO:12; in Table 24 bioassay lines the TcbA-enriched toxin B complex fraction of W-14 broth
% of total protein [1]: 18% | % of total protein (Control (protease omitted)): 58%

B1: TcbAiii: W-14 toxin peptide processed from TcbA, SEQ ID NO:55 (protein)
chain: LGTANSLTALFLPQENSKLKGYWRTLAQRMFNLRHNLSIDGQPLSLPLYAKPADPKALLSAAVSASQGGADLPKAPLTIHRFPQMLEGARGLVNQLIQFGSSLLGYSERQDAEAMSQLLQTQASELILTSIRMQDNQLAELDSEKTALQVSLAGVQQRFDSYSQLYEENINAGEQRALALRSESAIESQGAQISRMAGAGVDMAPNIFGLADGGMHYGAIAYAIADGIELSASAKMVDAEKVAQSEIYRRRRQEWKIQRDNAQAEINQLNAQLESLSIRREAAEMQKEYLKTQQAQAQAQLTFLRSKFSNQALYSWLRGRLSGIYFQFYDLAVSRCLMAEQSYQWEANDNSISFVKPGAWQGTYAGLLCGEALIQNLAQMEEAYLKWESRALEVERTVSLAVVYDSLEGNDRFNLAEQIPALLDKGEGTAGTKENGLSLANAILSASVKLSDLKLGTDYPDSIVGSNKVRRIKQISVSLPALVGPYQDVQAMLSYGGSTQLPKGCSALAVSHGTNDSGQFQLDFNDGKYLPFEGIALDDQGTLNLQFPNATDKQKAILQTMSDIILHIRYTIR
% of total protein [1]: 18% | % of total protein (Control (protease omitted)): 6%
